Measured values reported in the supplement of paper PMC3334620.
The full ranking holds about 33,000 sequences; the median of “E-score (-0.5 to 0.5)” is about -0.016, and the highest 2% start at about 0.3. The list shows a part of the results.

biological target: T1, Yer184c (UniProt P39961); test: PBM E-score (8-mer binding enrichment) (E-score (-0.5 to 0.5)); higher = stronger / more preferred TF binding; details: protein concentration: 100 nM; construct: GST-full length
T1 sequence: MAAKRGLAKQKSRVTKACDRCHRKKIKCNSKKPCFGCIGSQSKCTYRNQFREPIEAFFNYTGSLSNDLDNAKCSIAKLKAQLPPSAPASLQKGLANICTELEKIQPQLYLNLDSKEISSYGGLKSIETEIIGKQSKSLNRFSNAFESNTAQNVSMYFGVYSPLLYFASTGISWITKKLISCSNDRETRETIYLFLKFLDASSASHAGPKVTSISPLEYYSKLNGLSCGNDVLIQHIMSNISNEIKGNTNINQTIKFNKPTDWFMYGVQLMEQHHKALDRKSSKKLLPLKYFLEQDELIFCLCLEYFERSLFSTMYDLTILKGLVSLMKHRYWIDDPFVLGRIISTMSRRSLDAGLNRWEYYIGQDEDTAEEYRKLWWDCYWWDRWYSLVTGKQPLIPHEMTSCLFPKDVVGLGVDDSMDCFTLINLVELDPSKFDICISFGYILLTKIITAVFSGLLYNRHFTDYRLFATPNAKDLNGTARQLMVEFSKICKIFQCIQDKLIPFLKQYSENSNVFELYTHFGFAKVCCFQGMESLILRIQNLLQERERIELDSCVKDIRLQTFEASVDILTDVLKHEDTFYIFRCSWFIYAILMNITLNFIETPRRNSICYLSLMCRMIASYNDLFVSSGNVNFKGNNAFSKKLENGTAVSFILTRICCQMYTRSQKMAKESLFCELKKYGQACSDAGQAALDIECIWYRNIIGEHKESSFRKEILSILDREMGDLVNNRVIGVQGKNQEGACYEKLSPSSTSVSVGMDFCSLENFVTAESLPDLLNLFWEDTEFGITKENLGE
How it was run: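 Yeast transcription factors, full-length or as DNA-binding domains, were expressed with a GST tag using PURExpress in vitro transcription/translation. At about 100-200 nM they were applied to universal all-10-mer Agilent arrays, double-stranded by primer extension on fresh or once-stripped slides. Fluorescent anti-GST detected bound protein, and masliner normalised the scans. E-scores for ungapped eight-base words, pooled with reverse complements, came from the Universal PBM Analysis Suite.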

Sequence	PBM E-score
CTGATAAG	0.0801
CAATTAGC	0.0727
CCGTCATA	0.177
ACACTTTA	-0.0239
ACGTCGAT	0.0875
ACTAACTC	-0.00452
ACTTGTCT	0.0749
AGACGGGA	-0.0825
ATTCTCCA	0.0664
CCCCCACA	-0.414
CCACGCCC	-0.156
CCCCCAAC	-0.258
GTAGCAGA	0.123
ACCCCGCG	-0.119
AAGGAAGC	-0.178
TAGAACCA	-0.0841
GACGCCAC	-0.183
ATCGGACC	0.26
GTGCTGGA	-0.136
AGAGGTGC	-0.173
CTAGATGA	-0.159
CAGGCACA	-0.349
GAGGTTTA	0.114
GTAATAAC	0.00949
GCGACCGC	-0.0061

Sequence	PBM E-score
ACGCTAAC	-0.0394
ATGCCGGC	0.399
GCAAGATA	0.0733
CCTGTGGA	-0.268
CCTCAAAG	-0.14
AGCAGTGA	0.0499
AGGGTCGA	-0.0516
CCGTTTAG	0.16
AACTGTCT	-0.161
ATGGTGGA	-0.248
GCTGGTCA	-0.13
ATATGCAG	-0.171
AAGCGTTA	-0.22
ATTTAGAG	0.141
GCCCTTCC	-0.118
CAATTTGC	-0.0817
ACCTCAGT	-0.0185
AGTGAGTC	-0.189
GCTGGGAA	-0.0548
ATCTCTCA	0.0484
TAAGTGTA	-0.0488
CGCACCCC	-0.24
TTAGCCAA	-0.0891
TAACAGAA	0.236
CGTAACGA	-0.133

Sequence	PBM E-score
CGTTCGCA	-0.148
CCGGGTAG	0.147
ACTGCGGC	0.0262
CATTTTGA	-0.00114
CGACCCCG	-0.0259
CGCTTAAA	0.166
AGACTACG	-0.185
GAGGCTCA	-0.229
GCATACAC	-0.0811
AAATATAG	0.189
CCTTTATC	-0.0712
CTCCCAGC	-0.0231
TAAGGATA	0.0487
ATTATTCA	0.19
CACAACTA	0.223
ACGGCCAC	0.154
ATGGTTGA	-0.0763
CGCGTGGC	-0.0105
AATTCAGG	0.0718
CTCACAAA	0.164
GGTGCTAA	0.0611
AATCAATG	0.205
GTGTGAGA	-0.0444
AATCTACG	0.0211
CAGTGTAC	-0.206

Sequence	PBM E-score
TAACAATA	0.158
CGGTTGCC	0.235
CGGAATAG	0.253
TATCTTCA	0.0497
AATGTTAG	-0.0238
GCTCCTGA	0.00627
CACAAGCG	-0.247
GAGAGAAC	-0.00697
ACTGGAAT	-0.12
CGCAGGGC	0.0116
CATAATAC	0.00125
ATTCTAGC	0.0432
CAGATATG	-0.146
TCAAAGAA	0.00416
GTGGGTTA	-0.136
GCATTGGA	-0.0251
GCCATGCC	-0.133
GAAGGGTA	-0.0715
ATACTAAT	0.198
CCAACAAC	-0.0919
AAGCGCCG	0.373
GATCTTGA	0.0911
GGACGAAA	0.182
CCTCTACA	-0.108
AAAGTTGA	0.0216

Exported comma-delimited: part of the list above
Sequence,PBM E-score
TAGAACCA,-0.0841
GACGCCAC,-0.183
ATCGGACC,0.26
GTGCTGGA,-0.136
AGAGGTGC,-0.173
CTAGATGA,-0.159
CAGGCACA,-0.349

Remaining list, next part

Sequence	PBM E-score
ATGTTTGG	0.101
AGGCTCAC	-0.273
CTTCGGAA	0.394
GACCCCCC	-0.188
ATACTTCG	0.0948
AGCATTTC	0.087
CACTTAAA	0.111
TAAAAGCA	0.06
AGAATAAT	0.0179
AGGCCACC	-0.21
TCTTGGAA	0.121
AGCCGACA	0.0848
CTATCTCC	-0.113
CGGTGATC	-0.0365
TGAACGCA	0.154
AATCTTCG	0.18
AATCCTCC	-0.0292
ACGGCTGA	0.0623
CCTTCTTC	-0.19
AGCGACAC	-0.136
AACTGTCG	-0.00484
ATGTGGGC	-0.217
CATTACGC	0.0241
CACAGCTA	-0.145
ACGGACGG	0.169

Sequence	PBM E-score
CGATAGGA	-0.0673
AATCCCAC	-0.121
GCTCCAGA	-0.124
CCCCAGCC	-0.152
CGTCGCCC	-0.18
CAGGTGGG	-0.164
CAAGATAC	0.0473
ATAAGCAT	-0.0356
ATGTATAA	0.0425
ATGGAAGA	-0.0181
AAGCGATG	-0.245
GGAGATTA	0.00557
GAAAACAA	0.145
TGGGCCAA	-0.136
CAGGTGGA	-0.247
TGTAACAA	-0.0314
ATCAGAAA	0.0116
AACGCCCC	-0.0421
ATTCTCAG	0.134
AATAGGGC	-0.0514
ACTTTCAT	-0.0728
CTAGTGAG	-0.0187
CTTAACTA	-0.0358
ATCTTAAG	0.0169
CGTCTGAC	-0.128

Sequence	PBM E-score
ATCCCCGA	0.0326
CAATAAGA	0.176
ACGGCTCT	0.123
ATACTTCA	0.0618
ATCTTAAA	0.161
GAGCCCCC	-0.396
CCTTGCTA	-0.0394
CAAGCGGA	0.00133
AAAGGCAT	0.141
AGCTGAGC	-0.094
CTGCGATC	-0.0264
GGAGGCGA	-0.165
AATCCTTG	0.0874
TCGCCAAA	-0.0461
ATTTGCTG	0.0862
CCTCATTA	-0.0862
AATATCAC	0.11
AAGTCAAC	-0.0826
CAGCGACC	-0.0648
AGTTCTCG	-0.0118
AAAGTAAA	-0.00686
ATGAGTAA	0.0956

Three neighbouring records from above:
Sequence	PBM E-score
AGCTGAGC	-0.094
CTGCGATC	-0.0264
GGAGGCGA	-0.165
